Data reported in patent publication US11718864B2, “Cells and method of cell culture” (PFIZER INC., priority 2015, dated 2023).

Tested on: GS-CHO cells (Cell line A)
Assay: Growth (viable cell density) of GS-CHO cells in Medium A spiked with putative inhibitor metabolites
Assay type: cell-based, Chinese hamster
Conditions: single metabolite, at concentrations of 1 mM or lower; growth monitored 5 or 6 days
Protocol: GS-CHO cells producing a recombinant antibody were inoculated at low viable cell densities (0.1E6 cells/mL) in various conditions in 5 ml volume, 6-well plate cultures. […] The pH of the Medium A, spiked-in with any one of the nine metabolites or any combination of the nine metabolites, was adjusted to 7 before inoculating the cells (on day 0).
For indolelactate, the stock solution (500 mM) was prepared in DMSO. […] All the conditions were run in duplicates or triplicates. Growth of the cells in above described conditions was monitored for 5 or 6 days.

Q: `O=C(O)C(=O)Cc1ccc(O)cc1` [4-hydroxyphenylpyruvate] was tested. Which “effect on growth of cells” value did it give?
A: Its value is “potent negative effect on growth”.
